Assay results reported in the supplement of paper PMC10331698.
± gives the standard deviation of the averaged measurements. Small differences around the control level are noise.

Assays:
Assay in all cases: level (log10 ratio to DMSO vehicle control); higher = higher biomarker level / cell amount than vehicle control
[1] = compound: OCCCC(F)(F)C(F)(F)C(F)(F)C(F)(F)C(F)(F)C(F)(F)C(F)(F)C(F)(F)F [3-(Perfluorooctyl)propanol] (in DMSO); details: 2200 nM
Procedure: (§1)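 BioMAP Diversity Plus panel of 12 human primary cell co-culture systems (3C, 4H, LPS, SAg, BT, BF4T, BE3C, CASM3C, HDF3CGF, KF3CT, MyoF, Mphg). Compounds were added 1 h before stimulation and left for 24 h (MyoF 48 h; BT 72 h for soluble read-outs or 6 d for IgG). Biomarkers were read by ELISA, cytotoxicity by SRB, PBMC viability and proliferation by Alamar Blue. Each well value was divided by the mean of 8 DMSO control wells on the same plate and log10 transformed; duplicate blinded samples were tested at 4 concentrations.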

[2] = compound: FC(F)(F)C(F)(F)C(F)(F)C(F)(F)CCI [1H,1H,2H,2H-Perfluorohexyl iodide] (in DMSO); details: 2200 nM
Procedure: as §1

[3] = compound: O=C(O)CCC(F)(F)C(F)(F)C(F)(F)F [3:3 Fluorotelomer carboxylic acid] (in DMSO); details: 2200 nM
Procedure: as §1

[4] = compound: O=C(O)C(F)(OC(F)(F)C(F)(F)C(F)(F)F)C(F)(F)F [Ammonium perfluoro-2-methyl-3-oxahexanoate] (in Water)
Procedure: as §1

[5] = compound: FC(F)(F)C(F)(F)CNCC(F)(F)C(F)(F)F [Bis(1H,1H-perfluoropropyl)amine] (in DMSO); details: 2200 nM
Procedure: as §1

[6] = compound: C=C(C)C(=O)OCCC(F)(F)C(F)(F)C(F)(F)C(F)(F)C(F)(F)C(F)(F)F [6:2 Fluorotelomer methacrylate] (in DMSO); details: 2200 nM
Procedure: as §1

[7] = compound: OCC(F)(F)C(F)(F)C(F)(F)C(F)(F)C(F)(F)C(F)(F)CO [1H,1H,8H,8H-Perfluorooctane-1,8-diol] (in DMSO); details: 2200 nM
Procedure: as §1

[8] = compound: OCC(F)(F)C(F)(F)C(F)(F)C(F)F [1H,1H,5H-Perfluoropentanol] (in DMSO); details: 2200 nM
Procedure: as §1

[9] = compound: OCC(F)(F)C(F)(F)C(F)(F)C(F)(F)C(F)(F)C(F)(F)F [6:1 Fluorotelomer alcohol] (in DMSO); details: 2200 nM
Procedure: as §1

Perfluorohexanoic acid = compound: O=C(O)C(F)(F)C(F)(F)C(F)(F)C(F)(F)C(F)(F)F [Perfluorohexanoic acid] (in DMSO)
Procedure: as §1

[10] = compound: FC(F)(F)COC(OCC(F)(F)F)OCC(F)(F)F [tris(Trifluoroethoxy)methane] (in DMSO); details: 2200 nM
Procedure: as §1

[11] = compound: O=C(O)C(F)(OC(F)(F)C(F)(OC(F)(F)C(F)(OC(F)(F)C(F)(F)C(F)(F)F)C(F)(F)F)C(F)(F)F)C(F)(F)F [Perfluoro-(2,5,8-trimethyl-3,6,9-trioxadodecanoic)acid] (in DMSO); details: 370 nM
Procedure: as §1

[12] = compound: OCC(F)(F)OC(F)(F)C(F)(F)OC(F)(F)CO [1H,1H,8H,8H-Perfluoro-3,6-dioxaoctane-1,8-diol] (in DMSO); details: 2200 nM
Procedure: as §1

[13] = compound: O=S(=O)(O)C(F)(F)C(F)(F)C(F)(F)C(F)(F)F [Perfluorobutanesulfonic acid] (in DMSO)
Procedure: as §1

[14] = compound: O=C(O)C(F)(F)C(F)(F)C(F)(F)OC(F)(C(F)(F)F)C(F)(F)F [Perfluoro-4-isopropoxybutanoic acid] (in DMSO); details: 2200 nM
Procedure: as §1

Hexafluoroglutaric acid = compound: O=C(O)C(F)(F)C(F)(F)C(F)(F)C(=O)O [Hexafluoroglutaric acid] (in DMSO)
Procedure: as §1

[15] = compound: CNS(=O)(=O)C(F)(F)C(F)(F)C(F)(F)C(F)(F)C(F)(F)C(F)(F)C(F)(F)C(F)(F)F [N-Methylperfluorooctanesulfonamide] (in DMSO); details: 2200 nM
Procedure: as §1

Test System	level (log10) [1]	level (log10) [2]	level (log10) [3]	level (log10) ([4]; 2200 nM)	level (log10) ([4]; 6700 nM)	level (log10) ([4]; 20000 nM)	level (log10) ([4]; 60000 nM)	level (log10) [5]	level (log10) [6]	level (log10) [7]	level (log10) [8]	level (log10) [9]	level (log10) (Perfluorohexanoic acid; 2200 nM)	level (log10) (Perfluorohexanoic acid; 6700 nM)	level (log10) (Perfluorohexanoic acid; 20000 nM)	level (log10) (Perfluorohexanoic acid; 60000 nM)	level (log10) [10]	level (log10) [11]	level (log10) [12]	level (log10) ([13]; 2200 nM)	level (log10) ([13]; 6700 nM)	level (log10) ([13]; 20000 nM)	level (log10) ([13]; 60000 nM)	level (log10) [14]	level (log10) (Hexafluoroglutaric acid; 2200 nM)	level (log10) (Hexafluoroglutaric acid; 6700 nM)	level (log10) (Hexafluoroglutaric acid; 20000 nM)	level (log10) (Hexafluoroglutaric acid; 60000 nM)	level (log10) [15]
3C:SRB	0.0055 ± 0.0078	-0.0025 ± 0.0064	-0.0055 ± 0.0064	-0.0265 ± 0.023	-0.019 ± 0.011	-0.021 ± 0.0042	-0.045	0.0025 ± 0.0021	-0.0075 ± 0.00071	0.0175 ± 0.025	-0.0065 ± 0.0035	0 ± 0.0071	-0.0065 ± 0.011	-0.0065 ± 0.0078	-0.011 ± 0.0057	-0.001 ± 0.0028	-0.0115 ± 0.0078	-0.0015 ± 0.00071	-0.009 ± 0.0085	-0.013 ± 0.011	0.004 ± 0.0099	-0.0095 ± 0.0035	-0.021 ± 0.0042	-0.0205 ± 0.018	-0.008 ± 0.0085	-0.004 ± 0.0014	-0.005 ± 0.014	0.0075 ± 0.028	0.02 ± 0.0042
4H:CCL2/MCP-1	0.0355 ± 0.076	0.0305 ± 0.026	-0.0175 ± 0.091	-0.0025 ± 0.04	0.0005 ± 0.029	0.007 ± 0.037	0.008 ± 0.051	0.001 ± 0.04	-0.0035 ± 0.026	0 ± 0.083	0.0505 ± 0.018	0.034 ± 0.03	0.007 ± 0.04	-0.0105 ± 0.00071	-0.027 ± 0.0071	0.012 ± 0.021	0.021 ± 0.072	-0.001 ± 0.014	0.0095 ± 0.1	0.003 ± 0.024	-0.021 ± 0.0042	-0.0095 ± 0.023	-0.017 ± 0.018	0.027 ± 0.034	0.019 ± 0.075	-0.0095 ± 0.032	-0.0135 ± 0.011	0.0245 ± 0.047	0.0375 ± 0.033
4H:CCL26/Eotaxin-3	0.0115 ± 0.00071	0.002 ± 0.04	-0.011 ± 0.013	-0.0685 ± 0.036	-0.0615 ± 0.0021	-0.064 ± 0.0014	-0.118 ± 0.012	0.083 ± 0.027	-0.0015 ± 0.0092	0.009 ± 0.042	0.006 ± 0.0014	0.0045 ± 0.023	-0.004 ± 0.0014	0.0005 ± 0.005	-0.004 ± 0.0099	-0.015 ± 0.0071	0.026 ± 0.016	-0.0075 ± 0.012	-0.0255 ± 0.0035	-0.009 ± 0.014	-0.0025 ± 0.054	-0.001 ± 0.051	-0.048 ± 0.028	0.059 ± 0.023	0.024 ± 0.034	0.0155 ± 0.035	0.0155 ± 0.013	0.0235 ± 0.0078	0.027 ± 0.013
4H:CD62P/P-selectin	-0.0345 ± 0.023	-0.0175 ± 0.012	0.0385 ± 0.073	-0.0205 ± 0.057	-0.0475 ± 0.012	-0.0065 ± 0.03	-0.054 ± 0.048	-0.0275 ± 0.019	-0.001 ± 0.041	-0.0115 ± 0.022	-0.001 ± 0.0057	-0.002 ± 0.11	-0.018 ± 0.051	0.0235 ± 0.064	0.0555 ± 0.032	0.0255 ± 0.028	0.02 ± 0.076	0.0015 ± 0.035	0.013 ± 0.031	0.007 ± 0.023	-0.0155 ± 0.035	0.0045 ± 0.016	-0.0085 ± 0.015	0.015 ± 0.025	-0.0165 ± 0.015	0.0065 ± 0.0035	-0.035 ± 0.0014	-0.05 ± 0.064	0.0245 ± 0.0035
